Measured values: the supplement of paper PMC10849652
This is one part of the list.

Protein sequences, listed by entry. Tags and fused reporters are not part of them. Lines headed by an entry give the natural chain unless they say otherwise; changes in a name come on top.
UniProt Q32NB8: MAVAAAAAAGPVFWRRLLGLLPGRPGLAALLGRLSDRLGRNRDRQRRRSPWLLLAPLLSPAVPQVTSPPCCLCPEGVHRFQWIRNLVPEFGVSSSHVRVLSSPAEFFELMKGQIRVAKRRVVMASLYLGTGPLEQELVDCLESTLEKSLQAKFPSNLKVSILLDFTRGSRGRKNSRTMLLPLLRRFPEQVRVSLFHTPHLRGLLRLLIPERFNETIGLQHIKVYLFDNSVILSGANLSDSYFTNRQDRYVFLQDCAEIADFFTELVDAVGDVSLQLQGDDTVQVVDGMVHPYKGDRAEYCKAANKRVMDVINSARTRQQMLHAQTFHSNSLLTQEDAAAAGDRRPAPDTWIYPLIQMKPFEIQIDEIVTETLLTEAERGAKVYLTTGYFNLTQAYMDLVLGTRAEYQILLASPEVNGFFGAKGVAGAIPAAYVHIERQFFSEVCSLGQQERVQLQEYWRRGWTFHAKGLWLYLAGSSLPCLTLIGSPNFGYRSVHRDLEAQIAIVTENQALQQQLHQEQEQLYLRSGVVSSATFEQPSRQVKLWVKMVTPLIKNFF
UniProt Q9HB20: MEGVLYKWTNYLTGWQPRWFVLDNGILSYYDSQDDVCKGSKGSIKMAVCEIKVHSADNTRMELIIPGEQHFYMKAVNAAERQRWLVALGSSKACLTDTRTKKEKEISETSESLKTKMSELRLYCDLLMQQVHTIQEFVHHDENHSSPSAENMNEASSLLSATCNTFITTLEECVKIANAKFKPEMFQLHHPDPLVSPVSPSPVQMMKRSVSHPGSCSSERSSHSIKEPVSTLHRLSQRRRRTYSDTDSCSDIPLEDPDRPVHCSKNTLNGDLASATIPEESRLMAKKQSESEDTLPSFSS
UniProt Q9BZM1: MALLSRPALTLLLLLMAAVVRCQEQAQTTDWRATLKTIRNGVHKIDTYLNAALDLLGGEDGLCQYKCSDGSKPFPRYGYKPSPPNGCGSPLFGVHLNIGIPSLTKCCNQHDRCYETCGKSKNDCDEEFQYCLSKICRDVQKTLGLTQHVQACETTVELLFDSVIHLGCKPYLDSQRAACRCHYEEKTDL
UniProt Q9NXJ5: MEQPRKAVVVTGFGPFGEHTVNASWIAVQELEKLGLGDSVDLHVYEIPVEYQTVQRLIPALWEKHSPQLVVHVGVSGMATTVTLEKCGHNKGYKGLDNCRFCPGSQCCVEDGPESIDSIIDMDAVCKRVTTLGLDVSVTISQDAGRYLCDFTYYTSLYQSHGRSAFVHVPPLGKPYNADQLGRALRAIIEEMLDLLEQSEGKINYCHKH
UniProt Q13393: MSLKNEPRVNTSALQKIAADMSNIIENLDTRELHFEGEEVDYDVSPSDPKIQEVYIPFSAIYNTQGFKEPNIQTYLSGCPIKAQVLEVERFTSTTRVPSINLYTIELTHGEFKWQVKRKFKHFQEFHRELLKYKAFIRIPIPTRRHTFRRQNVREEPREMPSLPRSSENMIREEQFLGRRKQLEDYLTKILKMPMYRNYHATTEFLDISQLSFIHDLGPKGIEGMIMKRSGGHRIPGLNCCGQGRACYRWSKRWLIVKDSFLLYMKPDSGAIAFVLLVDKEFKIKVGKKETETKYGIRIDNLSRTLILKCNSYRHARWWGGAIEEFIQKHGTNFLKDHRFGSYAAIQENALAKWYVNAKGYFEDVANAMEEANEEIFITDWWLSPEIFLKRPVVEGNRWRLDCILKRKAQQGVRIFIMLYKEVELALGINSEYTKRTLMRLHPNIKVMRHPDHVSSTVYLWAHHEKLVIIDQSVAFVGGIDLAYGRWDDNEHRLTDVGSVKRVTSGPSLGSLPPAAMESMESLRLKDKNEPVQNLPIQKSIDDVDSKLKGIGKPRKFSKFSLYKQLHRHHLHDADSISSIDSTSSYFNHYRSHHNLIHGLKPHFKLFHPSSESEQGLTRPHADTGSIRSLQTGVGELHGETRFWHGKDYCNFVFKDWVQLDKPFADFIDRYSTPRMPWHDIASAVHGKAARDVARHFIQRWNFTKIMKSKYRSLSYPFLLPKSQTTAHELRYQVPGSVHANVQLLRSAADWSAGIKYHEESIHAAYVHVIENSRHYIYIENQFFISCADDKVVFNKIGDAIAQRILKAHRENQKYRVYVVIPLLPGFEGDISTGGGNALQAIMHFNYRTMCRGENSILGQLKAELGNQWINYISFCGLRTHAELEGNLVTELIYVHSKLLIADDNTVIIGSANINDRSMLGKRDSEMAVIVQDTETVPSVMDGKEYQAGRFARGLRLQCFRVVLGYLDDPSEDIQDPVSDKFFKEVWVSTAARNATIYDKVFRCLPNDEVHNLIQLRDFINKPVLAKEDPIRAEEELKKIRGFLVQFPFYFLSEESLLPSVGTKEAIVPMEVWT
UniProt O00459, whole entry, looked up: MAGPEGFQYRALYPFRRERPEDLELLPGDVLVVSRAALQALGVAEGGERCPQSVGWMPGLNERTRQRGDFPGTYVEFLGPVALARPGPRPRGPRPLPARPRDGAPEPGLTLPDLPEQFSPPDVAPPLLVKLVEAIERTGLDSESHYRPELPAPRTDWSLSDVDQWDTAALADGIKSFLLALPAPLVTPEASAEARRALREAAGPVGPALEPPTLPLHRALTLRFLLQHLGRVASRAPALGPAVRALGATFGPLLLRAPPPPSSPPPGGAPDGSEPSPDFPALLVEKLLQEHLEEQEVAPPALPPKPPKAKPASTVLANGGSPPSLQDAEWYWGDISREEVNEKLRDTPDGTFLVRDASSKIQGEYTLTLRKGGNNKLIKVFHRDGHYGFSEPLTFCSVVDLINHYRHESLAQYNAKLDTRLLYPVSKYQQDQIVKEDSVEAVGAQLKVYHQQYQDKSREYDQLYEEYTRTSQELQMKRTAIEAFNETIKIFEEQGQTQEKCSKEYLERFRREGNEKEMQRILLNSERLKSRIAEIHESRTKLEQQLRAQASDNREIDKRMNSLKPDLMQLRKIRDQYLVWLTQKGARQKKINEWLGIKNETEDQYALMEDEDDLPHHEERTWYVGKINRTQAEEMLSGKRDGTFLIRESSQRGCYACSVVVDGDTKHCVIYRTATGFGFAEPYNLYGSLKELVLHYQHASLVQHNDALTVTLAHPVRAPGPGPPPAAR
UniProt Q9NWS0, whole entry, looked up: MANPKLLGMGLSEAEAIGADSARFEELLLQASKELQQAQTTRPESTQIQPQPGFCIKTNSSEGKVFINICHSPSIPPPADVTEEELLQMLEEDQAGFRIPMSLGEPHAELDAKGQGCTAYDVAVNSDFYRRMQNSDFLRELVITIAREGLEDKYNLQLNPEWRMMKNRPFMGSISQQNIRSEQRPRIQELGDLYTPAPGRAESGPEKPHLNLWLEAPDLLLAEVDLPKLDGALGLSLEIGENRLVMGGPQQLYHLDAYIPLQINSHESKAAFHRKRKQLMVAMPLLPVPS
UniProt Q99755: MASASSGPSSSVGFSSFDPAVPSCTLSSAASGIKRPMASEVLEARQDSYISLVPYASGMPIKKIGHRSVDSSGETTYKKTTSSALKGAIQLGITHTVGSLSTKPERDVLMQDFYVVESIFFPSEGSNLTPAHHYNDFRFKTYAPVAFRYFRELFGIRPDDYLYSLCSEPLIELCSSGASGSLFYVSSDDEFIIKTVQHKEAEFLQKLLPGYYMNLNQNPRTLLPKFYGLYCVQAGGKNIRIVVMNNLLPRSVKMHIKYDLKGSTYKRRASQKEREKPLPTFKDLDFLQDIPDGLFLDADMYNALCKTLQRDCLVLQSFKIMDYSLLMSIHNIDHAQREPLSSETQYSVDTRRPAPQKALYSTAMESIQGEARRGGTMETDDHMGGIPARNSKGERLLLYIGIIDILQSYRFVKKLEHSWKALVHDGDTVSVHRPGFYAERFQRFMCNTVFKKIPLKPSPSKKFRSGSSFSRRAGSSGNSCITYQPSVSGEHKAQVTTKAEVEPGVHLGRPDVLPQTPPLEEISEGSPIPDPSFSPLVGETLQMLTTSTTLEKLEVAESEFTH
UniProt Q7Z7B1: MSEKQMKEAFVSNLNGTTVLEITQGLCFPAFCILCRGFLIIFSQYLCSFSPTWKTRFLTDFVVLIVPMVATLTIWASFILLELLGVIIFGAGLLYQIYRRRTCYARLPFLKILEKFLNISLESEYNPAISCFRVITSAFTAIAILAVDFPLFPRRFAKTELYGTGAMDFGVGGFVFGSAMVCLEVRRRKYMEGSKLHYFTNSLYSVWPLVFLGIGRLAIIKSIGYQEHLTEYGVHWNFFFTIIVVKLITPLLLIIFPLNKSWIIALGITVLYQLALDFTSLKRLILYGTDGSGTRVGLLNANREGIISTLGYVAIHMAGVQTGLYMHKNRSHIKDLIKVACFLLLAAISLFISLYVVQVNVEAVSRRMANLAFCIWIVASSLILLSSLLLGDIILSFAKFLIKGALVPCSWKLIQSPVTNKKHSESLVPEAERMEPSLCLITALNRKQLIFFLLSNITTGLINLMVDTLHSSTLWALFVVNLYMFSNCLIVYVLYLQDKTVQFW
UniProt Q9H8W4: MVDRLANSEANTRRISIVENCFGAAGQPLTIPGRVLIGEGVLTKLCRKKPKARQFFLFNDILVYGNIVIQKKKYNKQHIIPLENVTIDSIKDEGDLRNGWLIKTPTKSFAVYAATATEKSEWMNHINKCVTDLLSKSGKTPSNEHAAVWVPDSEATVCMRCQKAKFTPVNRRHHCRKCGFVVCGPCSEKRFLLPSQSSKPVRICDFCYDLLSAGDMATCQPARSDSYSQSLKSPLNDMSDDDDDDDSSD
UniProt O75167: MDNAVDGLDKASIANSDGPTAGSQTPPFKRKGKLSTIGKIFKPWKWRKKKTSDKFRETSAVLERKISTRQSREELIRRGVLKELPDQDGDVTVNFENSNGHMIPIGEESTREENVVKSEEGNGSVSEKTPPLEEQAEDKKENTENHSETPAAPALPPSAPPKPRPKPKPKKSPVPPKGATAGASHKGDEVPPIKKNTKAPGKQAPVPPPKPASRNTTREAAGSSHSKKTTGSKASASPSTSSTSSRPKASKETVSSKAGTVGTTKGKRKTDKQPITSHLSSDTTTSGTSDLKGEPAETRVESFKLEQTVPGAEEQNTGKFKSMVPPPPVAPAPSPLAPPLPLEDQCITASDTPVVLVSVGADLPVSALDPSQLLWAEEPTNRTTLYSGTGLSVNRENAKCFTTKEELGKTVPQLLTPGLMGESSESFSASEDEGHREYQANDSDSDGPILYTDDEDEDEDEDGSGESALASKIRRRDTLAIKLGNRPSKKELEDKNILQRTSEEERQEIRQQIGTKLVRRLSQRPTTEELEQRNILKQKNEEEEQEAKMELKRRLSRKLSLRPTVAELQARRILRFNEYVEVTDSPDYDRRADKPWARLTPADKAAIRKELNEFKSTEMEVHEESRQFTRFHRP
UniProt Q8WXW3: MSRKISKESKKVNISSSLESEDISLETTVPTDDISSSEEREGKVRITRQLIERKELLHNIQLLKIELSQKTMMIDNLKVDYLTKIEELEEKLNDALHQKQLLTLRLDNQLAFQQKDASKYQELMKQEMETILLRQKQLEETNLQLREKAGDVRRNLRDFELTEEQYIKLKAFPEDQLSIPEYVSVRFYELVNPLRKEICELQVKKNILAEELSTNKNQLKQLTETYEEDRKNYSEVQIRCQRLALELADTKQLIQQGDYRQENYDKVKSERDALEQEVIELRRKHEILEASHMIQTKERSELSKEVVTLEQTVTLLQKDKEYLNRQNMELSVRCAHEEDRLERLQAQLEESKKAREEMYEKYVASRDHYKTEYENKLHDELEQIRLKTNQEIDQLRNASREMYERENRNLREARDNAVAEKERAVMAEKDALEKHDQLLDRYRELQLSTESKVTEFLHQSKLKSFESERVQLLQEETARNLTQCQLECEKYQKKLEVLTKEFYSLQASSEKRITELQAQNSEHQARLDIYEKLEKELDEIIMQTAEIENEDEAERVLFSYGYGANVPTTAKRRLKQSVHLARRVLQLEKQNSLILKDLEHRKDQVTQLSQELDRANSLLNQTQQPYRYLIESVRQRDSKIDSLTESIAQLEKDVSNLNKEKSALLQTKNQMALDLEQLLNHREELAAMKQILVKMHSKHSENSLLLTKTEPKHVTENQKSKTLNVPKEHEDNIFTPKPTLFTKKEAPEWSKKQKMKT
UniProt Q99640: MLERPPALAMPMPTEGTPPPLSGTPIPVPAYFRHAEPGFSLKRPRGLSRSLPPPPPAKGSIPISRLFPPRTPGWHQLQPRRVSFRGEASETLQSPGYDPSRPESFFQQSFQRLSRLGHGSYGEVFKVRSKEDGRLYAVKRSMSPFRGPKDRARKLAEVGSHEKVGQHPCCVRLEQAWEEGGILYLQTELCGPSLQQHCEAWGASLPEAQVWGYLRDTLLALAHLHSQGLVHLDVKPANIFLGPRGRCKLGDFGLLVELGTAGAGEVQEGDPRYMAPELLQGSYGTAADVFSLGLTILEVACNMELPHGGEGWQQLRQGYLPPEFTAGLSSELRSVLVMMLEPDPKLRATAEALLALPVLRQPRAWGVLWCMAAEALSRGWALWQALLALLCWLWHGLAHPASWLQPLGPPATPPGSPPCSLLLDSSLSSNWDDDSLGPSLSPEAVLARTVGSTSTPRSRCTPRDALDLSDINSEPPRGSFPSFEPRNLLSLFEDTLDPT

What was measured:
Assay in all cases: log2 fold change, soluble protein after heating vs DMSO (PISA); higher = thermal stabilisation; K562 lysate, 10 uM; active = over 0.2 and 3.5 SD of the protein, either way, in both replicates (recomputed)
nilotinib = compound: Cc1cn(-c2cc(NC(=O)c3ccc(C)c(Nc4nccc(-c5cccnc5)n4)c3)cc(C(F)(F)F)c2)cn1 [nilotinib]
How it was run: (§1)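 Pellets of K562 cells were dounce-homogenised in PBS pH 7.4 with 1 mM MgCl2, and the crude extract was held at 1 mg/mL protein for a 30 min treatment with 10 μM compound. Aliquots were heated for 3 min over 48°C-58°C and pooled before NP-40 was added to 0.5% at 4°C. The supernatant from 21,000xg for 90 min was quantified by TMTpro 16plex LC-MS/MS with channel sums equalised. Values are reported from duplicates as log-two fold change in thermal stability relative to solvent controls.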

[1] = compound: Cc1nc(Nc2n[nH]c3c2CN(C(=O)N[C@H](CN(C)C)c2ccccc2)C3(C)C)c2sccc2n1
How it was run: as §1

dasatinib = compound: Cc1nc(Nc2ncc(C(=O)Nc3c(C)cccc3Cl)s2)cc(N2CCN(CCO)CC2)n1 [dasatinib]
How it was run: as §1

[2] = compound: Cc1ncc(-c2ccnc(Nc3ccc(S(C)(=O)=O)cc3)n2)n1C(C)C
How it was run: as §1

[3] = compound: Cn1cc(-c2ccc3c(c2)CCN3C(=O)Cc2cccc(C(F)(F)F)c2)c2c(N)ncnc21
How it was run: as §1

quisinostat = compound: Cn1cc(CNCC2CCN(c3ncc(C(=O)NO)cn3)CC2)c2ccccc21 [quisinostat]
How it was run: as §1

tipifarnib = compound: Cn1cncc1[C@@](N)(c1ccc(Cl)cc1)c1ccc2c(c1)c(-c1cccc(Cl)c1)cc(=O)n2C [tipifarnib]
How it was run: as §1

[4] = compound: NC(=O)Nc1cc(-c2cccc(F)c2)sc1C(=O)N[C@H]1CCCNC1
How it was run: as §1

[5] = compound: NC(=O)c1cnc(N[C@@H]2CCCC[C@@H]2N)nc1Nc1cccc(-n2nccn2)c1
How it was run: as §1

[6] = compound: NC1(c2ccc(-c3nc4ccn5c(=O)[nH]nc5c4cc3-c3ccccc3)cc2)CCC1
How it was run: as §1

Measured: log2 fold change

PIGT (UniProt Q969N2)
inactive: nilotinib 0.003 | [1] -0.026 | dasatinib -0.079 | [2] -0.03 | [3] 0.014 | quisinostat -0.002 | tipifarnib -0.031 | [4] 0.021 | [5] 0.055 | [6] -0.039

PGS1 (UniProt Q32NB8)
inactive: nilotinib -0.026 | [1] 0.073 | dasatinib -0.082 | [2] 0.045 | [3] 0.05 | quisinostat -0.073 | tipifarnib -0.022 | [4] 0.055 | [5] 0.057 | [6] -0.058

PIGS (UniProt Q96S52)
inactive: nilotinib -0.002 | [1] -0.03 | dasatinib -0.01 | [2] 0.002 | [3] -0.014 | quisinostat 0.019 | tipifarnib -0.038 | [4] 0.01 | [5] 0.007 | [6] -0.007

PJA2 (UniProt O43164)
inactive: nilotinib -0.04 | [1] 0.032 | dasatinib -0.01 | [2] -0.047 | [3] -0.062 | quisinostat -0.023 | tipifarnib -0.085 | [4] 0.018 | [5] 0.015 | [6] 0.009

PLEKHA3 (UniProt Q9HB20)
inactive: nilotinib -0.084 | [1] -0.08 | dasatinib -0.176 | [2] 0.13 | [3] -0.066 | quisinostat -0.124 | tipifarnib 0.16 | [4] 0.05

PGM2L1 (UniProt Q6PCE3)
inactive: nilotinib -0.023 | [1] -0.009 | dasatinib 0.05 | [2] 0.006 | [3] 0.003 | quisinostat -0.025 | tipifarnib 0.034 | [4] 0.001 | [5] 0.02 | [6] 0.002

PLA2G12A (UniProt Q9BZM1)
inactive: nilotinib -0.013 | [1] 0.006 | dasatinib 0.079 | [2] -0.364 | [3] 0.043 | quisinostat -0.258 | tipifarnib 0.017 | [4] -0.006 | [5] 0.062 | [6] 0.024

PGPEP1 (UniProt Q9NXJ5)
inactive: nilotinib 0.018 | [1] 0.019 | dasatinib -0.067 | [2] 0.07 | [3] 0.011 | quisinostat 0.041 | tipifarnib -0.006 | [4] -0.033 | [5] -0.03 | [6] 0.033

PIK3R1 (UniProt P27986)
inactive: nilotinib -0.041 | [1] -0.072 | dasatinib -0.024 | [2] 0.058 | [3] 0.004 | quisinostat -0.027 | tipifarnib 0.039 | [4] 0.042 | [5] 0.021 | [6] 0.249

PGRMC2 isoform 2 (UniProt O15173)
inactive: nilotinib 0.038 | [1] -0.025 | dasatinib 0.019 | [2] -0.045 | [3] 0.009 | quisinostat -0.012 | tipifarnib 0.003 | [4] -0.021 | [5] 0.022 | [6] 0.047

PIGO (UniProt Q8TEQ8)
inactive: nilotinib -0.019 | [1] 0.055 | dasatinib -0.032 | [2] -0.19 | [3] 0.079 | quisinostat -0.119 | tipifarnib 0.013 | [4] 0.301 | [5] 0.059 | [6] 0.041

PLD1 (UniProt Q13393)
inactive: nilotinib 0.018 | [1] 0.02 | dasatinib 0.014 | [2] -0.004 | [3] 0.007 | quisinostat -0.006 | tipifarnib -0.057 | [4] 0.015 | [5] 0.038 | [6] -0.033

PHF5A (UniProt Q7RTV0)
inactive: nilotinib 0.012 | [1] 0.007 | dasatinib 0.031 | [2] 0.04 | [3] 0.026 | quisinostat 0.165 | tipifarnib 0.05 | [4] -0.023 | [5] -0.017 | [6] 0.031

PIK3R2 (UniProt O00459)
inactive: nilotinib 0.007 | [1] -0.006 | dasatinib -0.023 | [2] 0.003 | [3] -0.008 | quisinostat -0.04 | tipifarnib -0.001 | [4] 0.031 | [5] 0.017 | [6] 0.263

PIGX isoform 2 (UniProt Q8TBF5)
inactive: nilotinib 0.025 | [1] 0.053 | dasatinib -0.005 | [2] 0.179 | [3] 0.113 | quisinostat 0.031 | tipifarnib -0.004 | [4] 0 | [5] 0.067

5 successive entries already listed, for reference:
PIGS (UniProt Q96S52)
inactive: nilotinib -0.002 | [1] -0.03 | dasatinib -0.01 | [2] 0.002 | [3] -0.014 | quisinostat 0.019 | tipifarnib -0.038 | [4] 0.01 | [5] 0.007 | [6] -0.007

PJA2 (UniProt O43164)
inactive: nilotinib -0.04 | [1] 0.032 | dasatinib -0.01 | [2] -0.047 | [3] -0.062 | quisinostat -0.023 | tipifarnib -0.085 | [4] 0.018 | [5] 0.015 | [6] 0.009

PLEKHA3 (UniProt Q9HB20)
inactive: nilotinib -0.084 | [1] -0.08 | dasatinib -0.176 | [2] 0.13 | [3] -0.066 | quisinostat -0.124 | tipifarnib 0.16 | [4] 0.05

PGM2L1 (UniProt Q6PCE3)
inactive: nilotinib -0.023 | [1] -0.009 | dasatinib 0.05 | [2] 0.006 | [3] 0.003 | quisinostat -0.025 | tipifarnib 0.034 | [4] 0.001 | [5] 0.02 | [6] 0.002

PLA2G12A (UniProt Q9BZM1)
inactive: nilotinib -0.013 | [1] 0.006 | dasatinib 0.079 | [2] -0.364 | [3] 0.043 | quisinostat -0.258 | tipifarnib 0.017 | [4] -0.006 | [5] 0.062 | [6] 0.024

The listing continues:

PIH1D1 (UniProt Q9NWS0)
inactive: nilotinib 0.018 | [1] -0.047 | dasatinib 0.004 | [2] 0.019 | [3] -0.006 | quisinostat 0.026 | tipifarnib -0.006 | [4] 0 | [5] 0.049 | [6] -0.031

PIP5K1A (UniProt Q99755)
inactive: nilotinib -0.091 | [1] 0.011 | dasatinib -0.137 | [2] -0.082 | [3] 0.033 | quisinostat -0.165 | tipifarnib 0.032 | [4] 0.034 | [5] -0.041 | [6] 0.01

PICALM (UniProt H0YEH1)
inactive: nilotinib -0.023 | [1] -0.012 | dasatinib -0.039 | [2] -0.007 | [3] -0.005 | quisinostat -0.095 | tipifarnib 0.019 | [4] 0.166 | [5] -0.021 | [6] -0.042

PHOX2B (UniProt Q99453)
inactive: nilotinib -0.142 | [1] 0.039 | dasatinib -0.605 | [2] -0.255 | [3] 0.224 | quisinostat -0.4 | tipifarnib -0.16 | [4] -0.031

PIGW (UniProt Q7Z7B1)
inactive: nilotinib -0.076 | [1] 0.22 | dasatinib 0.034 | [2] 0.101 | [3] -0.029 | quisinostat -0.004 | tipifarnib -0.113 | [4] -0.003

PLEKHF2 (UniProt Q9H8W4)
inactive: nilotinib -0.03 | [1] 0.005 | dasatinib -0.068 | [2] 0.073 | [3] -0.086 | quisinostat -0.092 | tipifarnib 0.005 | [4] -0.013 | [5] -0.024 | [6] 0.038

PIP4K2B (UniProt P78356)
inactive: nilotinib 0.032 | [1] 0.024 | dasatinib 0.151 | [2] 0.093 | [3] 0.008 | quisinostat -0.017 | tipifarnib -0.007 | [4] 0 | [5] 0.002 | [6] -0.034

PIN1 (UniProt Q13526)
inactive: nilotinib -0.008 | [1] 0.032 | dasatinib 0.009 | [2] 0.007 | [3] 0.031 | quisinostat 0.057 | tipifarnib 0.015 | [4] 0.004 | [5] -0.015 | [6] 0.005

PLCB3 (UniProt Q01970)
inactive: nilotinib -0.015 | [1] -0.011 | dasatinib 0.009 | [2] -0.012 | [3] -0.003 | quisinostat 0.034 | tipifarnib -0.008 | [4] 0.01 | [5] 0.01 | [6] 0.009

PHACTR2 isoform 4 (UniProt O75167)
inactive: nilotinib 0.032 | [1] -0.027 | dasatinib 0.044 | [2] 0.068 | [3] -0.014 | quisinostat -0.072 | tipifarnib -0.01 | [4] -0.004 | [5] -0.067 | [6] -0.063

PKN2 (UniProt Q16513)
inactive: nilotinib 0.027 | [1] -0.086 | dasatinib -0.097 | [2] 0.011 | [3] 0.006 | quisinostat 0.065 | tipifarnib -0.01 | [4] -0.184 | [5] -0.007 | [6] -0.02

PIK3R4 (UniProt Q99570)
inactive: nilotinib -0.01 | [1] 0.008 | dasatinib -0.018 | [2] 0.025 | [3] 0.003 | quisinostat -0.066 | tipifarnib -0.018 | [4] 0.024 | [5] 0.032 | [6] 0.033

PIBF1 (UniProt Q8WXW3)
inactive: nilotinib 0.039 | [1] -0.011 | dasatinib 0.007 | [2] 0.045 | [3] 0.05 | quisinostat -0.058 | tipifarnib -0.025 | [4] 0.015 | [5] 0.062 | [6] 0.037

PLCL1 (UniProt Q15111)
inactive: nilotinib 0.037 | [1] -0.018 | dasatinib 0.004 | [2] 0.018 | [3] -0.001 | quisinostat -0.024 | tipifarnib 0.001 | [4] 0.016 | [5] -0.003 | [6] -0.015

PKMYT1 (UniProt Q99640)
inactive: nilotinib 0.045 | [1] 0.101 | dasatinib 0.34 | [2] 0.028 | [3] -0.086 | quisinostat 0.158 | tipifarnib -0.052 | [4] -0.1
